For part of these data: At least one structure is not confirmed: it was looked up by name or label, or the drawing left a doubt. Some of these results come from one statement about several compounds together.
Assays:
Format in all cases: cell-based
wildtype E. coli = assay: NAD+/NADH extraction and NAD cycling assay; settings: 0.5 hours after drug addition
Text: NAD+/NADH extraction and NAD cycling assay. Protocols for dinucleotide extraction and the cycling assay were based on protocols by Leonardo et al. (M. R. Leonardo et al., J. Bacteriol., 1996, 178: 6013-6018).
Using a modified version (M. R. Leonardo et al., J. Bacteriol., 1996, 178: 6013-6018;) of the NAD^+ cycling assay developed by Bernofsky and Swan (C. Bernofsky et al., Anal. Biochem., 1973, 53: 452-458), the present Applicants monitored NAD^+ and NADH concentrations in wildtype E. coli following treatment with the bactericidal drugs norfloxacin, ampicillin and kanamycin, as well as the bacteriostatic drug spectinomycin. For all three bactericidal drugs, a >5 fold increase in the NAD^+/NADH ratio was observed 0.5 hours after drug addition. This ratio returned to untreated levels by 1 hour. The increase in the NAD^+/NADH ratio was predominantly due to a large relative drop in NADH accompanied by a modest surge in NAD^+. This spike was not observed in an untreated culture, where the ratio of NAD^+/NADH remained tightly bounded. More importantly, treatment with the bacteriostatic drug spectinomycin had no effect on the NAD^+/NADH ratio relative to the untreated culture. A surge in NADH consumption upon exposure to bactericidal antibiotics should induce a burst in superoxide generation via the respiratory chain. These events may account for destabilizing of iron-sulfur clusters, stimulation of the Fenton reaction and cell death.

[1] = Survival assay in LB with 10% mouse serum
[2] = test system: S. aureus strain (S7) mildly resistant to ciprofloxacin; assay: Survival assay, potentiation of ciprofloxacin, S. aureus strain S7
E. coli strain = assay: Survival assay, potentiation of ciprofloxacin, E. coli strain
[3] = test system: S. aureus strain S3 (ISP 794); assay: Survival assay, potentiation of ciprofloxacin, S. aureus strain S3
Text: Cell-based Survival Assay.

wild-type E. coli = settings: with 2,2′-dipyridyl; 5 μg/mL ampicillin or 5 μg/mL kanamycin
Protocol: FIG. 36 is a set of 3 graphs showing the effect of iron chelation, hydroxyl radical quenching of iron-sulfur synthesis on the […] efficiency of bactericidal antibiotics. a,c,e, Log change in colony forming units per mL (CFU/mL, mean+/−standard deviation). Effect of addition of 500 μM 2,2′-dipyridyl or 150 mM thiourea to wildtype E. coli, and on an iron-sulfur cluster synthesis mutant, ΔiscS, on bactericidal drug efficacy and hydroxyl radical formation following exposure to a, 250 ng/mL norfloxacin (Nor), c, 5 μg/mL ampicillin (Amp), or e, 5 μg/mL kanamycin (Kan).
Growth Conditions. In the experiments, the growth and survival of untreated exponential phase E. coli, or S. aureus, were compared to cultured treated with antibiotics at the above concentrations. E. coli cultures were treated with norfloxacin, kanamycin, ampicillin, rifamycin SV, chloramphenical, tetracycline, erythromycin, or spectinomycin, where appropriate, S. aureus cultures were treated with norfloxacin, vancomycin or chloramphenical, where appropriate.
Application of iron chelators is an established means of blocking Fenton reaction-mediated hydroxyl radical formation by sequestering unbound iron. […]

Question: With `CCn1cc(C(=O)O)c(=O)c2cc(F)c(N3CCNCC3)cc21` [Nor, norfloxacin] as the compound, how does the “increase in the NAD+/NADH ratio” value (wildtype E. coli) read?
Answer: > 5 fold

Question: With `CC1(C)S[C@@H]2[C@H](NC(=O)[C@H](N)c3ccccc3)C(=O)N2[C@H]1C(=O)O` [ampicillin] as the compound, how does the “increase in the NAD+/NADH ratio” value (wildtype E. coli) read?
Answer: > 5 fold

Question: With `O=c1cc(-c2ccc(Oc3c(O)cc4oc(-c5ccc(O)cc5)cc(=O)c4c3O)cc2)oc2cc(O)cc(O)c12` [hinokiflavone] as the compound, how does the “potentiating activity in the presence of mouse serum” value [1] read?
Answer: retained activity

Question: What about the “potentiation of ciprofloxacin activity” value [2] of the same compound?
Answer: potentiated cirpofloxacin activity

Question: What about the antibiotic activity (E. coli strain) of the same compound?
Answer: not observed

Question: What about the “effect on ciprofloxacin activity in survival assay” value ([3]; 1 μg/mL ciprofloxacin, 50 μg/mL compound, 16 hours, strain S3) of the same compound?
Answer: potentiated ciprofloxacin activity

Question: And the “antibiotic activity alone (in the absence of ciprofloxacin)” value ([3]; strain S3, particularly at high concentrations)?
Answer: modest antibiotic activity

Question: Which results are given for `NC[C@H]1O[C@H](O[C@H]2[C@H](O)[C@@H](O[C@H]3O[C@H](CO)[C@@H](O)[C@H](N)[C@H]3O)[C@H](N)C[C@@H]2N)[C@H](O)[C@@H](O)[C@@H]1O` [kanamycin]?
Answer: increase in the NAD+/NADH ratio (wildtype E. coli): > 5 fold; killing following application of the iron chelator (wild-type E. coli): less than 0.5 logs
